Some of the results follow.

The chains behind the UniProt entries cited, without tags or fusion partners.
UniProt Q0JBA9, entry or part of it: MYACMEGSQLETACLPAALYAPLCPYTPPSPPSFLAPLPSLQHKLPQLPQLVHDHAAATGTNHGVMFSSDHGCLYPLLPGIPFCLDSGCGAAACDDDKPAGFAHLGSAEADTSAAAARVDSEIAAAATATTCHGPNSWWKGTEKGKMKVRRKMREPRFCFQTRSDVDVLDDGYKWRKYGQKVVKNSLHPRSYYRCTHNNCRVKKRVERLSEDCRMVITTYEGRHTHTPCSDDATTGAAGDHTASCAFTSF

In the assay the target is OsWRKY34 (Oryza sativa, UniProt Q0JBA9 1-250). In words: protein-binding microarray (RPBM); PBS, 2% BSA, 51.3 ng/ul salmon testes DNA, 50 uM zinc acetate, 200 nM TF, 25 C, 1 h; high values mean tight binding. Particulars: protein: recombinant; tags: N-terminal polyhistidine and DsRed monomer fusion (pET32a); label: CyDye5-dUTP incorporated in the synthesized complementary strand; 3' TTTTT single-stranded linker to array surface; dsDNA, one strand shown. The essentials: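 Binding signal here means per-feature fluorescence intensity in arbitrary units. The values were read on an Axon 4000B scanner after a custom Agilent array, double-stranded by primer extension with Cy5-dUTP, was incubated with 200 nM protein at 25 °C for 1 h in PBS with 2% BSA, salmon testes DNA and 50 µM zinc acetate, then washed. The proteins were transcription factors with an N-terminal polyhistidine tag and DsRed, expressed in E. coli BL21-CodonPlus and purified on Ni–NTA.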
For the sequence “ACGCCGGCTTCTTCGTCCTCTTCTTCTTCTTCTTCTTCTTCGGAGTCACCTAGTGCAG”, the binding signal is 11900 fluorescence intensity (a.u.). The figure for “GCCAGCTCGTGCCGCACAATGCCACCACCAGACTTACAGACGGAGTCACCTAGTGCAG” is 10100 fluorescence intensity (a.u.); for “GGGCCACGGGTTTATTATTTTTGGATTCAAATTGCCACATCGGAGTCACCTAGTGCAG” it is 10400 fluorescence intensity (a.u.); for “AGCGCCCGGCTACGACGACACCTTGCCGCCGATCGTCTTCCGGAGTCACCTAGTGCAG” it is 9490 fluorescence intensity (a.u.). The figure for “CCCACACAGCATTCAGGCCTCGTTCTTCGCACTGGGCCCTCGGAGTCACCTAGTGCAG” is 8590 fluorescence intensity (a.u.); for “TTTGTAGGGTCTGAATTAATTTTTTTCCCCTTGCTCCACACGGAGTCACCTAGTGCAG” it is 8120 fluorescence intensity (a.u.). Then “GATACTCCCTCCATCCATAAATATTTGATGCCGTTGACTTCGGAGTCACCTAGTGCAG”, with 12300 fluorescence intensity (a.u.). Take “GGTTGTATGAGTCGAATATTTACTTGCACTTTTATATAGCCGGAGTCACCTAGTGCAG”: the binding signal is 11100 fluorescence intensity (a.u.). The figure for “GAGGTGAGAGCGGCTTCTGGCCGCGACGTGGGAGGGTGGGCGGAGTCACCTAGTGCAG” is 8280 fluorescence intensity (a.u.); for “GTTGCCCTATTCTGTACCCATGAATTAAATTATTTGCTGACGGAGTCACCTAGTGCAG” it is 8280 fluorescence intensity (a.u.); for “TAACGACTCCGCCCCTCACCCACCACCCCACCCATCGCCTCGGAGTCACCTAGTGCAG” it is 10200 fluorescence intensity (a.u.).

“AGGGGAGGGGCTACAGAACTCCAATCCACCGTAGGTTTGTCGGAGTCACCTAGTGCAG”: the binding signal is 8780 fluorescence intensity (a.u.).

Turning to “GCCAGGTGATTTCCATGAGCGCGGGTTGGGTAGTGTACACCGGAGTCACCTAGTGCAG”, the binding signal was 10400 fluorescence intensity (a.u.).

In the case of “CCTTGGCGTCATTGGTTTACAGTCGTGTACTCGTGTACTACGGAGTCACCTAGTGCAG”, the binding signal was 8550 fluorescence intensity (a.u.). With “GCTTGGAGCATCAGAGACTCATACGGGTTTCACATTCTCTCGGAGTCACCTAGTGCAG”, the binding signal is 8200 fluorescence intensity (a.u.). Then “GCATCCTTCACACACAGTAACAATTTATGCGCAACCAAGTCGGAGTCACCTAGTGCAG”, with 10700 fluorescence intensity (a.u.). The figure for “TCTCGGCCAACCCACATACAGCTAGCCACCATATTTTAAGCGGAGTCACCTAGTGCAG” is 9970 fluorescence intensity (a.u.); for “ACACAACAAAGACACCATCCATGTTTTTCTTTTTCTTTTTCGGAGTCACCTAGTGCAG” it is 8250 fluorescence intensity (a.u.). For the sequence “ATCTGGTGCCTTTCGATTTTCACAGGAGGTCTACTAATTGCGGAGTCACCTAGTGCAG”, the binding signal was 8240 fluorescence intensity (a.u.). Then “AAATATTATGTGGTCAAGTTCCTATTTTGATCCATCCACCCGGAGTCACCTAGTGCAG”, with 8410 fluorescence intensity (a.u.); and “TTGTAACTAACTTTCTTGTTTACCGTGAGCACGTTTTTTACGGAGTCACCTAGTGCAG”, with 8820 fluorescence intensity (a.u.); and “GTTGTTGGGTTTGCAAAAGATTCGGCCATCTCTCTTCAGCCGGAGTCACCTAGTGCAG”, with 8350 fluorescence intensity (a.u.). Then “GCCAAGAACACATCACTTCCATTAGCTCAGCTTCTCACCACGGAGTCACCTAGTGCAG”, with 8780 fluorescence intensity (a.u.). For “TTTTTCCATACTTCAATCTTTTTTCACATCTTATCAGTTACGGAGTCACCTAGTGCAG”, the binding signal was 11900 fluorescence intensity (a.u.). “CCATGGAAAACCCTACCACTCCTCGCGCGGTTTTACTTTGCGGAGTCACCTAGTGCAG”: the binding signal was 8850 fluorescence intensity (a.u.). Then “ACCTTCTTCTTGGTCAAAGCCATCCATCCCACCACTCACCCGGAGTCACCTAGTGCAG”, with 8500 fluorescence intensity (a.u.); and “GTACATGTACGGACACATGCCACCTTCGCGCGCCACCTACCGGAGTCACCTAGTGCAG”, with 8460 fluorescence intensity (a.u.). Then “TCTCCTAAAGATTCATGTTACGTATCTCTTACTTCAACAGCGGAGTCACCTAGTGCAG”, with 8710 fluorescence intensity (a.u.); and “CTCTGTAATATATCATTATGACTGCTAATTCGTCTATTTTCGGAGTCACCTAGTGCAG”, with 8080 fluorescence intensity (a.u.); and “GCCGCCACCCGCCACTGTGATCACCGCGAGCCGCCGCCAGCGGAGTCACCTAGTGCAG”, with 9810 fluorescence intensity (a.u.).

Turning to “CACATATTTTTTATTTGAATTCGGTCCTAATGTAATTACTCGGAGTCACCTAGTGCAG”, the binding signal was 10900 fluorescence intensity (a.u.). The figure for “TCATTGAGTTCTTGTTTTTAGTTGGTAATTCTTTCTTTATCGGAGTCACCTAGTGCAG” is 11000 fluorescence intensity (a.u.); for “CCACCTGTGACCTGTGTATGTGCACACTCCGTCAGACCAGCGGAGTCACCTAGTGCAG” it is 8810 fluorescence intensity (a.u.); for “AGGAGGTAGGTTGGTAGGTTTCTATTGCTTCTTCTCAGCTCGGAGTCACCTAGTGCAG” it is 9510 fluorescence intensity (a.u.). Consider “CTGCCACTTATCCACACACAACTTCATTGCAACAAATCACCGGAGTCACCTAGTGCAG”, for which the binding signal was 8360 fluorescence intensity (a.u.).

In the case of “CGCCGTTTCTCTCGTCGTTGACCGGAGAAATCGTCGTCTCCGGAGTCACCTAGTGCAG”, the binding signal is 9980 fluorescence intensity (a.u.). For the sequence “CCCCGTCCTGACTACCTGCTGCTCGCCTCCCATTCTTCTCCGGAGTCACCTAGTGCAG”, the binding signal was 11200 fluorescence intensity (a.u.). The figure for “GATCTTACCCCTCAATTATGTCTCTTACGCATCAGAACTGCGGAGTCACCTAGTGCAG” is 8980 fluorescence intensity (a.u.).

As to “TGATAATTTTGGCCATTCCTAATCTGCAAACAGATCATCTCGGAGTCACCTAGTGCAG”, the binding signal is 8060 fluorescence intensity (a.u.). The figure for “TCTCGGCCATCGCGTACTCATATATAAATCGTACGTACTCCGGAGTCACCTAGTGCAG” is 8490 fluorescence intensity (a.u.). The figure for “AGTATATCTCCTTCTTCTGTTCCTGTGATGCACCTCTGATCGGAGTCACCTAGTGCAG” is 8650 fluorescence intensity (a.u.).

Take “ACCACGTTATCTCTCGTTCTCTCTCCTTTCTTCTCTCGTCCGGAGTCACCTAGTGCAG”: the binding signal is 10800 fluorescence intensity (a.u.).
